Molecules are shown by their SMILES. The list shows a part of the results. These are further read-outs of the screen, such as a control signal, another cell line or another target. No call is given for them. Most of these compounds were active or inconclusive in the main read-out, so they are no random draw. Words in brackets tell the shape of the fitted curve; partial curves, single points and poor fits give uncertain potencies.

A short description of the experiment: qHTS Assay for Identifying the Cell-Membrane Permeable IMPase Inhibitors. Conditions: CHO-M1 cells, IP1 accumulation, HTRF TR-FRET ratio; measured here: donor channel 620 nm AC50.
For the compound `CCOC(=O)C(C(=O)NCC1CCCO1)C1CCCCC1` (stereo not given), the concentration at half-maximal activity (AC50) is 6.31 µM [falling, single point].

Regarding `CC(=O)/C(C)=N\O`, the concentration at half-maximal activity (AC50) was 20 µM [rising, single point].

In the case of `CC(NC(=O)c1cn(C)c2ccc(S(=O)(=O)N3CCCC3)cc2c1=O)c1ccc2c(c1)OCCO2` (stereo not given), the AC50 is 0.0501 µM [rising, full curve, poor fit].

On to `CCOc1cc(-c2nc(-c3ccc(-c4ccc(OC)cc4)nc3OC)no2)cc(OCC)c1OCC`, for which the concentration at half-maximal activity (AC50) was 1.58 µM [falling, partial curve].

As for `O=C1CC(Sc2nnc(-c3ccccc3)o2)C(=O)N1c1ccccc1` (stereo not given), the AC50 is 12.6 µM [rising, single point].

With `CC(C)N(C(=O)CSc1nc2ccccc2n1Cc1ccccc1F)C(C)C`, the AC50 was 10 µM [falling, partial curve].

Turning to `CC1CCN(c2oc(-c3cccc4ccccc34)nc2C#N)CC1`, the AC50 was 0.398 µM [falling, full curve, poor fit].

As to `CC[n+]1cc(-c2ccccc2)nc(N2CCOCC2)n1`, the AC50 is 25.1 µM [falling, single point].

Turning to `COc1c(C)cccc1C(=O)Nc1ccc(CN2CCOCC2)cc1`, the concentration at half-maximal activity (AC50) was 2.82 µM [rising, single point].

In the case of `COc1ccc(N2C(=O)CC(N3CCC(O)(c4cccc(C(F)(F)F)c4)CC3)C2=O)cc1` (stereo not given), the AC50 was 0.0126 µM [rising, full curve, poor fit].

Consider `COc1ccccc1NC(=O)COc1ccc(/C=N/NS(=O)(=O)c2ccc(C)cc2)cc1`, for which the concentration at half-maximal activity (AC50) is 1 µM [rising, full curve].

Consider `COCCNC(=O)c1c(N)n(-c2cccc(C)c2)c2nc3ccccc3nc12`, for which the AC50 was 0.0631 µM [falling, full curve, poor fit].

As for `O=C(Nc1ccc(F)cc1F)NC1CC(=O)N(Cc2ccccc2)C1` (stereo not given), the concentration at half-maximal activity (AC50) is 3.98 µM [falling, partial curve, poor fit].

Consider `O=C(Nc1ccc(C2CCCCC2)cc1)C1CCCN(c2ncccn2)C1` (stereo not given), for which the AC50 was 0.0501 µM [falling, full curve].

Turning to `O=C(Nc1ccc2c(c1)oc1ccccc12)C1CC1`, the AC50 was 3.98 µM [rising, single point].

As to `O=C(Nc1ccccc1C(=O)NCCCn1ccnc1)c1ccc(Cl)cc1Cl`, the concentration at half-maximal activity (AC50) was 0.0398 µM [falling, full curve].

In the case of `C/C(=N/NS(=O)(=O)c1ccc(Br)cc1)c1ccc(NC(=O)c2ccc(C)o2)cc1`, the AC50 is 15.8 µM [falling, partial curve, poor fit].

`COC(=O)c1[nH]c2c(c1C)C(=O)CC(c1cc(OC)ccc1OC)C2` (stereo not given): the half-maximal activity concentration (AC50) is 5.62 µM [rising, single point].

As for `O=C1OC(c2cccs2)=N/C1=C\c1ccc(-c2ccccc2Cl)o1`, the half-maximal activity concentration (AC50) is 6.31 µM [falling, single point].

For `COc1ccc(N(C(=O)c2ccco2)C(C(=O)NC2CCCC2)c2ccc(N(C)C)cc2)cc1OC` (stereo not given), the half-maximal activity concentration (AC50) was 0.126 µM [falling, single point].

Regarding `CCOC(=O)c1c(NC(=O)CSc2nnc(-c3ccco3)o2)sc(C(C)=O)c1C`, the concentration at half-maximal activity (AC50) is 12.6 µM [rising, single point].

Take `Cc1ccc(C)c(NC(=S)NC2CC3CCCC(C2)N3CC(C)C)c1` (stereo not given): the AC50 is 0.2 µM [falling, full curve].

On to `Cc1nonc1OCC(C)(COc1nonc1C)NC(=O)c1ccc(Cl)cc1`, for which the concentration at half-maximal activity (AC50) was 15.8 µM [falling, single point].

Take `Cn1c(=O)c2c(nc(NCCCO)n2CCc2ccccc2)n(C)c1=O`: the AC50 was 0.00316 µM [rising, full curve, poor fit].

As to `Cc1cc(=O)oc2c3c4c(cc12)OCCN4CCC3`, the concentration at half-maximal activity (AC50) was 0.0126 µM [falling, full curve, poor fit].

For `CCOc1ccc(CCNC(=O)CSc2cc(=O)n(C)c3cc(Cl)ccc23)cc1OCC`, the half-maximal activity concentration (AC50) was 31.6 µM [rising, single point].

Take `O=C(Nc1ccccc1N1CCN(c2ccc(F)cc2)CC1)C12CC3CC(CC(C3)C1)C2`: the concentration at half-maximal activity (AC50) is 0.158 µM [falling, full curve, poor fit].

Consider `CCc1ccc(C2c3c(oc4ccc(F)cc4c3=O)C(=O)N2c2nc(C)c(C(=O)OC)s2)cc1` (stereo not given), for which the concentration at half-maximal activity (AC50) was 0.316 µM [falling, partial curve].

Take `O=C(Nc1c(-c2ccccc2)nc2c(Br)cc(Br)cn12)c1ccco1`: the half-maximal activity concentration (AC50) was 10 µM [rising, partial curve].

As for `CN1CCN(CC(=O)Nc2sc3c(c2C#N)CCC(C(C)(C)C)C3)CC1` (stereo not given), the concentration at half-maximal activity (AC50) is 31.6 µM [rising, single point].

In the case of `COc1ccc(C2=NN(C(=O)CSc3ncccn3)C(c3ccc(C)cc3)C2)cc1` (stereo not given), the half-maximal activity concentration (AC50) is 4.47 µM [rising, single point].

With `CCC(C)NC(=O)CCc1c(C)nc2nc(-c3cc(OC)cc(OC)c3)nn2c1C` (stereo not given), the AC50 is 0.0158 µM [rising, full curve, poor fit].

On to `O=C(CNc1ccccc1)N/N=C/c1ccc([N+](=O)[O-])o1`, for which the AC50 is 0.158 µM [falling, full curve, poor fit].

In the case of `CCC(=O)N1CCc2cc(S(=O)(=O)NCCCN3CCN(Cc4ccccc4)CC3)ccc21`, the AC50 was 15.8 µM [falling, single point].

Regarding `Cc1ccc(S(=O)(=O)C(C#N)c2nc3ccccc3nc2N2CCCC2)cc1` (stereo not given), the concentration at half-maximal activity (AC50) is 10 µM [falling, partial curve, poor fit].

Consider `O=C(CSc1nc(Cc2ccccc2)nc2ccccc12)Nc1ccc2c(c1)OCCO2`, for which the AC50 was 0.794 µM [falling, full curve, poor fit].

As to `Cc1ccc2oc(-c3ccc(NC(=O)c4ccc5c(c4)OCO5)cc3)nc2c1`, the AC50 is 0.794 µM [falling, full curve].

For `O=C(c1ccc(C(F)(F)F)cc1)N1CCCCC1`, the concentration at half-maximal activity (AC50) was 3.98 µM [rising, single point].

`COC(=O)NNC(=O)COc1ccc(Cl)cc1`: the AC50 is 0.158 µM [falling, single point].

As to `COc1cc(C2N(c3ccc(Cl)c(Cl)c3)C(=O)C3CCCN32)cc(OC)c1OC` (stereo not given), the AC50 was 5.01 µM [rising, full curve, poor fit].

Consider `CCOc1cc(CNc2ccc(O)cc2)ccc1OCc1ccc(Cl)cc1Cl`, for which the concentration at half-maximal activity (AC50) was 22.4 µM [falling, partial curve, poor fit].

As to `CCOC(=O)C(Sc1nnc(-c2ccncc2)o1)C(C)=O` (stereo not given), the AC50 was 0.0316 µM [falling, full curve, poor fit].

Consider `COC(=O)CNc1nc(C2CC2)nc2c1nnn2Cc1ccccc1Cl`, for which the half-maximal activity concentration (AC50) was 0.398 µM [falling, full curve].

In the case of `CCCCn1c(SCC(=O)Nc2nc(C)cs2)nnc1-c1cccnc1`, the concentration at half-maximal activity (AC50) is 0.1 µM [rising, full curve, poor fit].

Consider `CCOC(=O)CNC(=O)Nc1nnc(-c2ccc(OCC)cc2)o1`, for which the AC50 was 1 µM [falling, full curve, poor fit].

For `CC(=O)c1ccc(CCCCCCCCCC(=O)O)s1`, the AC50 was 12.6 µM [rising, single point].

Take `CN(C)c1ccc(NC(=O)CSc2nc(N)c(C(=O)Nc3ccc(N(C)C)cc3)s2)cc1`: the half-maximal activity concentration (AC50) was 15.8 µM [falling, single point].

In the case of `CCOc1ccc(/C=N/NC(=O)c2ccccc2NC(=O)c2ccc(OC)cc2)cc1`, the half-maximal activity concentration (AC50) was 12.6 µM [rising, partial curve].

For `CCCCn1c(NS(=O)(=O)c2ccccc2)c(S(=O)(=O)c2ccc(C)cc2)c2nc3ccccc3nc21`, the AC50 is 28.2 µM [rising, single point].

Consider `Cc1cccc(Cn2cnc3c(nnn3Cc3ccccc3F)c2=O)c1`, for which the concentration at half-maximal activity (AC50) is 3.98 µM [falling, partial curve].

Regarding `CC(C)Cc1nnc(NS(C)(=O)=O)s1`, the AC50 is 1.26 µM [falling, partial curve, poor fit].

With `O=C(COc1ncnc2ccccc12)Nc1cccc(S(=O)(=O)N2CCOCC2)c1`, the half-maximal activity concentration (AC50) was 15.8 µM [rising, single point].

For the compound `COc1ccc2nc(C)cc(SCC(=O)Nc3c(C)cc(C)cc3C)c2c1`, the AC50 was 25.1 µM [rising, single point].

For `COC(=O)C1=C(C)N(C2CCCCC2)C(=O)C1`, the concentration at half-maximal activity (AC50) is 31.6 µM [falling, single point].

In the case of `CCNC(=O)COC(=O)C1C(C(=O)OCC)=C(C)NC(C)=C1C(=O)OCC`, the AC50 is 1.26 µM [falling, full curve, poor fit].

On to `O=C(COC(=O)C12CC3CC(CC(C3)C1)C2)Nc1ncc(Cl)cc1Cl`, for which the AC50 was 7.94 µM [falling, partial curve, poor fit].

On to `O=C(CCC(=O)OCC(=O)c1ccc(-c2ccccc2)cc1)Nc1cccc(Cl)c1`, for which the concentration at half-maximal activity (AC50) is 0.501 µM [falling, single point].

Regarding `CCn1nnnc1SCC(=O)c1ccc(NC(C)=O)cc1`, the concentration at half-maximal activity (AC50) is 12.6 µM [falling, partial curve].

As to `O=C(CCn1nnc2ccccc21)Nc1nnc(COc2ccc(F)cc2)s1`, the AC50 is 0.0158 µM [rising, full curve, poor fit].

As for `CCn1c(=N)c(C(=O)NCCCOC)cc2c(=O)n3cccc(C)c3nc21`, the half-maximal activity concentration (AC50) was 3.98 µM [falling, single point].

In the case of `COCCn1c(SCC(=O)N2CC(=O)Nc3ccccc32)nnc1-c1ccoc1C`, the half-maximal activity concentration (AC50) was 0.794 µM [falling, full curve].

In the case of `O=C(O)c1ccccc1NCN1C(=O)C2CC=C(Cl)CC2C1=O` (stereo not given), the AC50 was 15.8 µM [rising, partial curve].

Consider `CCCCNC(=O)NNC(=O)c1ccoc1C`, for which the AC50 was 0.1 µM [falling, full curve, poor fit].

In the case of `COc1ncnc2c1N=C1CC(C)(C)CC(N)=C1S2`, the AC50 was 12.6 µM [falling, single point].

For `COc1ccc(/C=N/NC(=O)CSCc2ccc([N+](=O)[O-])cc2)cc1OC`, the AC50 was 0.0316 µM [falling, full curve, poor fit].

These data come from PubChem BioAssay AID901 (National Center for Advancing Translational Sciences (NCATS), 2007).
